Reference: PubChem BioAssay AID1259405 (NCATS, 2018)
The deposit covers about 50,000 reagents; shown is a random part of them. About 4,000 of all reagents (8%) count as active. 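Mouse siRNA library applied to hamster cells; one well for each siRNA.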 Entries without a mark were called inactive. The numbers tell different reagents against one gene apart.

- Test: 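Knock-downs that lift recombinant protein yield in hamster ovary cells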 (primary screen)
- System: Chinese hamster CHO-K1 ovary cells with stable secreted eGFP expression
- Reagent: single siRNA against mouse genes, 0.8 pmol siRNA per well (2 µl of 400 nM stock)
- Duration: 3 days
- Measured: 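Percent of the per-plate non-targeting control median for intracellular GFP per well by laser scanning cytometry and for cell viability by ATP luminescence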
- Reading the numbers: GFP, % of control: higher = more GFP per well, higher productivity; viability (ATP), % of control: higher = more viable cells (more ATP)
- Active means: 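Called active when intracellular GFP, relative to negative control, is at or above 120%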

no.	gene symbol	reagent	GFP, % of control	viability (ATP), % of control
1	4921517D22Rik (RIKEN cDNA 4921517D22 gene)	1	47.9	59.3
2	4921517D22Rik (RIKEN cDNA 4921517D22 gene)	2	65.9	57.1
3	4921517D22Rik (RIKEN cDNA 4921517D22 gene)	3	100	105
4	Furin (furin, paired basic amino acid cleaving enzyme)	1	99.9	58.3
5	Furin (furin, paired basic amino acid cleaving enzyme)	2	102	69.4
6	Furin (furin, paired basic amino acid cleaving enzyme)	3	82.1	79.8
7	Sphkap (SPHK1 interactor, AKAP domain containing)	1	74.1	58.7
8	Sphkap (SPHK1 interactor, AKAP domain containing)	2	59.5	61.5
9	Sphkap (SPHK1 interactor, AKAP domain containing)	3	56.4	77.8
10	Tcf3 (transcription factor 3)	1	73.3	88.6
11	Tcf3 (transcription factor 3)	2	83.4	70.6
12	Tcf3 (transcription factor 3)	3	81.4	89.2
13	Pip4k2b (phosphatidylinositol-5-phosphate 4-kinase, type II, beta)	1	70.3	92.3
14	Pcolce (procollagen C-endopeptidase enhancer protein)	1	65.4	65.3
15	Pcolce (procollagen C-endopeptidase enhancer protein)	2	84.8	86.4
16	Pcolce (procollagen C-endopeptidase enhancer protein)	3	111	65.2
17	Trim45 (tripartite motif-containing 45)	1	96.1	87.8
18	Trim45 (tripartite motif-containing 45)	2	98.1	87.6
19	Trim45 (tripartite motif-containing 45)	3	108	137
20	Cnrip1 (cannabinoid receptor interacting protein 1)	1	32.7	55.8
21	Cnrip1 (cannabinoid receptor interacting protein 1)	2	77.3	79.6
22	Cnrip1 (cannabinoid receptor interacting protein 1)	3	101	46.2
23	Or14a260 (olfactory receptor family 14 subfamily A member 260)	1	39.6	34.4
24	Or14a260 (olfactory receptor family 14 subfamily A member 260)	2	79.9	65.8
25	Or14a260 (olfactory receptor family 14 subfamily A member 260)	3	111	97.5
26	Or2l13 (olfactory receptor family 2 subfamily L member 13)	1	61.4	65.8
27	Or2l13 (olfactory receptor family 2 subfamily L member 13)	2	60.9	90.8
28	Or2l13 (olfactory receptor family 2 subfamily L member 13)	3	39.2	21.1
29	Mrps5 (mitochondrial ribosomal protein S5)	1	127 (active)	103
30	Mrps5 (mitochondrial ribosomal protein S5)	2	114	81.1
31	Mrps5 (mitochondrial ribosomal protein S5)	3	166 (active)	73.4
32	Nox3 (NADPH oxidase 3)	1	85.7	47.4
33	Nox3 (NADPH oxidase 3)	2	43	55.5
34	Nox3 (NADPH oxidase 3)	3	65.4	64

Reagents listed so far with an active call, once more:
gene symbol	reagent	GFP, % of control	viability (ATP), % of control
Mrps5 (mitochondrial ribosomal protein S5)	1	127 (active)	103
Mrps5 (mitochondrial ribosomal protein S5)	3	166 (active)	73.4
